Experimental data: PubChem BioAssay AID1224831 (NIAID, 2016)
Assay: 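Retesting screen hits on the TLR4-driven TNF response with six separate siRNAs each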 (follow-up of hits). System: human THP-1 B5 monocytic leukaemia cells carrying a TNF promoter luciferase reporter, made macrophage-like with PMA. Knock-down reagent: single siRNA against human genes, 50 nM. Duration: about 68 h of knock-down, then 4 h LPS. Treatment: LPS (Salmonella minnesota, TLR-grade) at 10 ng/ml for 4 h; PMA 5 ng/ml present during knock-down. Measured: 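TNF promoter reporter read as dual luciferase ratio after 4 h LPS, normalised per plate to its median, given as replicate mean robust z-score per siRNA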. Scale: TNF reporter z-score: higher = stronger LPS-induced TNF reporter signal; z-score, median over gene's siRNAs: higher = stronger TNF reporter signal across the gene's siRNAs. Active means: 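Active when the replicate mean z-score is about -1 or lower, or about 1.5 or higher; lowered and raised TNF reporter signal both count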. Meaning of the calls: active = changed TNF reporter (either direction); inactive = little change.
The deposit covers about 3,500 reagents; this is a random part of them. In the full data, 731 (21%) got an active call. 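Active means either lowered or raised reporter signal; the gene-median score did not drive the per-siRNA calls.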 Reagents against one gene are numbered here. Reagent sequences are not shown.

| gene | reagent | TNF reporter z-score, replicate mean | z-score, median over gene's siRNAs | activity call |
| --- | --- | --- | --- | --- |
| SCARB1 (scavenger receptor class B member 1) | 1 | -0.12 | -0.205 | inactive |
| SCARB1 (scavenger receptor class B member 1) | 2 | -0.29 | -0.205 | inactive |
| SCARB1 (scavenger receptor class B member 1) | 3 | -0.34 | -0.205 | inactive |
| SCARB1 (scavenger receptor class B member 1) | 4 | 0.35 | -0.205 | inactive |
| SCARB1 (scavenger receptor class B member 1) | 5 | -1.52 | -0.205 | active |
| SCARB1 (scavenger receptor class B member 1) | 6 | 1.57 | -0.205 | active |
| PSMA6 (proteasome 20S subunit alpha 6) | 1 | -1.88 | -1.67 | active |
| PSMA6 (proteasome 20S subunit alpha 6) | 2 | -1.74 | -1.67 | active |
| PSMA6 (proteasome 20S subunit alpha 6) | 3 | -1.87 | -1.67 | active |
| PSMA6 (proteasome 20S subunit alpha 6) | 4 | -1.33 | -1.67 | active |
| PSMA6 (proteasome 20S subunit alpha 6) | 5 | -1.34 | -1.67 | active |
| PSMA6 (proteasome 20S subunit alpha 6) | 6 | -1.6 | -1.67 | active |
| TOM1L2 (target of myb1 like 2 membrane trafficking protein) | 1 | 0.47 | -0.2 | inactive |
| TOM1L2 (target of myb1 like 2 membrane trafficking protein) | 2 | 2.03 | -0.2 | active |
| TOM1L2 (target of myb1 like 2 membrane trafficking protein) | 3 | -1.52 | -0.2 | active |
| TOM1L2 (target of myb1 like 2 membrane trafficking protein) | 4 | -0.11 | -0.2 | inactive |
| TOM1L2 (target of myb1 like 2 membrane trafficking protein) | 5 | -0.52 | -0.2 | inactive |
| TOM1L2 (target of myb1 like 2 membrane trafficking protein) | 6 | -0.29 | -0.2 | inactive |
| SHFL (shiftless antiviral inhibitor of ribosomal frameshifting) | 1 | -0.39 | -0.33 | inactive |
| SHFL (shiftless antiviral inhibitor of ribosomal frameshifting) | 2 | -0.28 | -0.33 | inactive |
| SHFL (shiftless antiviral inhibitor of ribosomal frameshifting) | 3 | -0.38 | -0.33 | inactive |
| SHFL (shiftless antiviral inhibitor of ribosomal frameshifting) | 4 | -0.61 | -0.33 | inactive |
| SHFL (shiftless antiviral inhibitor of ribosomal frameshifting) | 5 | 0.32 | -0.33 | inactive |
| SHFL (shiftless antiviral inhibitor of ribosomal frameshifting) | 6 | 0.26 | -0.33 | inactive |
| MARK1 (microtubule affinity regulating kinase 1) | 1 | 0.82 | -0.285 | inactive |
| MARK1 (microtubule affinity regulating kinase 1) | 2 | -0.27 | -0.285 | inactive |
| MARK1 (microtubule affinity regulating kinase 1) | 3 | -1.96 | -0.285 | active |
| MARK1 (microtubule affinity regulating kinase 1) | 4 | -0.3 | -0.285 | inactive |
| MARK1 (microtubule affinity regulating kinase 1) | 5 | -0.69 | -0.285 | inactive |
| MARK1 (microtubule affinity regulating kinase 1) | 6 | -0.11 | -0.285 | inactive |
| IAH1 (isoamyl acetate hydrolyzing esterase 1 (putative)) | 1 | 0.01 | -0.48 | inactive |
| IAH1 (isoamyl acetate hydrolyzing esterase 1 (putative)) | 2 | -0.65 | -0.48 | inactive |
| IAH1 (isoamyl acetate hydrolyzing esterase 1 (putative)) | 3 | 0.09 | -0.48 | inactive |
| IAH1 (isoamyl acetate hydrolyzing esterase 1 (putative)) | 4 | -0.51 | -0.48 | inactive |
| IAH1 (isoamyl acetate hydrolyzing esterase 1 (putative)) | 5 | -0.45 | -0.48 | inactive |
| IAH1 (isoamyl acetate hydrolyzing esterase 1 (putative)) | 6 | -0.81 | -0.48 | inactive |
| ARL14EP (ARF like GTPase 14 effector protein) | 1 | -0.12 | -0.015 | inactive |
| ARL14EP (ARF like GTPase 14 effector protein) | 2 | -0.57 | -0.015 | inactive |
| ARL14EP (ARF like GTPase 14 effector protein) | 3 | 0.16 | -0.015 | inactive |
| ARL14EP (ARF like GTPase 14 effector protein) | 4 | 0.43 | -0.015 | inactive |
| ARL14EP (ARF like GTPase 14 effector protein) | 5 | -0.17 | -0.015 | inactive |
| ARL14EP (ARF like GTPase 14 effector protein) | 6 | 0.09 | -0.015 | inactive |
| PLPPR2 (phospholipid phosphatase related 2) | 1 | 0.44 | 0.29 | inactive |
| PLPPR2 (phospholipid phosphatase related 2) | 2 | 0.15 | 0.29 | inactive |
| PLPPR2 (phospholipid phosphatase related 2) | 3 | 0.16 | 0.29 | inactive |
| PLPPR2 (phospholipid phosphatase related 2) | 4 | 0.4 | 0.29 | inactive |
| PLPPR2 (phospholipid phosphatase related 2) | 5 | 2.31 | 0.29 | active |
| PLPPR2 (phospholipid phosphatase related 2) | 6 | 0.18 | 0.29 | inactive |
| RND2 (Rho family GTPase 2) | 1 | -1.11 | -1.09 | active |
| RND2 (Rho family GTPase 2) | 2 | -1.72 | -1.09 | active |
| RND2 (Rho family GTPase 2) | 3 | 0.17 | -1.09 | inactive |
| RND2 (Rho family GTPase 2) | 4 | -1.88 | -1.09 | active |
| RND2 (Rho family GTPase 2) | 5 | -1.07 | -1.09 | active |
| RND2 (Rho family GTPase 2) | 6 | 0.67 | -1.09 | inactive |
| IL3RA (interleukin 3 receptor subunit alpha) | 1 | 0.2 | 0.525 | inactive |
| IL3RA (interleukin 3 receptor subunit alpha) | 2 | 2.18 | 0.525 | active |
| IL3RA (interleukin 3 receptor subunit alpha) | 3 | 1.84 | 0.525 | active |
| IL3RA (interleukin 3 receptor subunit alpha) | 4 | -0.22 | 0.525 | inactive |
| IL3RA (interleukin 3 receptor subunit alpha) | 5 | 0.85 | 0.525 | inactive |
| IL3RA (interleukin 3 receptor subunit alpha) | 6 | 0.18 | 0.525 | inactive |
| TICRR (TOPBP1 interacting checkpoint and replication regulator) | 1 | -0.46 | -0.045 | inactive |
| TICRR (TOPBP1 interacting checkpoint and replication regulator) | 2 | -0.06 | -0.045 | inactive |
| TICRR (TOPBP1 interacting checkpoint and replication regulator) | 3 | 1.36 | -0.045 | inactive |
| TICRR (TOPBP1 interacting checkpoint and replication regulator) | 4 | -0.03 | -0.045 | inactive |
| TICRR (TOPBP1 interacting checkpoint and replication regulator) | 5 | 1.72 | -0.045 | active |
| TICRR (TOPBP1 interacting checkpoint and replication regulator) | 6 | -0.25 | -0.045 | inactive |
| RBM39 (RNA binding motif protein 39) | 1 | -0.83 | 0.085 | inactive |
| RBM39 (RNA binding motif protein 39) | 2 | -0.98 | 0.085 | inactive |
| RBM39 (RNA binding motif protein 39) | 3 | 1.03 | 0.085 | inactive |
| RBM39 (RNA binding motif protein 39) | 4 | 1.19 | 0.085 | inactive |
| RBM39 (RNA binding motif protein 39) | 5 | -0.89 | 0.085 | inactive |
| RBM39 (RNA binding motif protein 39) | 6 | 1 | 0.085 | inactive |
| GDF9 (growth differentiation factor 9) | 1 | 0.34 | -0.11 | inactive |
| GDF9 (growth differentiation factor 9) | 2 | 0.26 | -0.11 | inactive |
| GDF9 (growth differentiation factor 9) | 3 | 0.27 | -0.11 | inactive |
| GDF9 (growth differentiation factor 9) | 4 | -0.74 | -0.11 | inactive |
| GDF9 (growth differentiation factor 9) | 5 | -0.48 | -0.11 | inactive |
| GDF9 (growth differentiation factor 9) | 6 | -0.56 | -0.11 | inactive |
| PSMD11 (proteasome 26S subunit, non-ATPase 11) | 1 | -0.21 | -0.42 | inactive |
| PSMD11 (proteasome 26S subunit, non-ATPase 11) | 2 | -0.33 | -0.42 | inactive |
| PSMD11 (proteasome 26S subunit, non-ATPase 11) | 3 | -0.51 | -0.42 | inactive |
| PSMD11 (proteasome 26S subunit, non-ATPase 11) | 4 | -1.55 | -0.42 | active |
| PSMD11 (proteasome 26S subunit, non-ATPase 11) | 5 | -0.51 | -0.42 | inactive |
| PSMD11 (proteasome 26S subunit, non-ATPase 11) | 6 | -0.31 | -0.42 | inactive |
